Measured values published in patent US20130095097A1.
No constants are given. Whether binding was seen depends on the method and setting. Some entries that bind do so weakly or less than the wild type.

Chains of the proteins cited; added tags and fusions are not shown. Residues count along the entry.
UniProt P10747, residues 19-220: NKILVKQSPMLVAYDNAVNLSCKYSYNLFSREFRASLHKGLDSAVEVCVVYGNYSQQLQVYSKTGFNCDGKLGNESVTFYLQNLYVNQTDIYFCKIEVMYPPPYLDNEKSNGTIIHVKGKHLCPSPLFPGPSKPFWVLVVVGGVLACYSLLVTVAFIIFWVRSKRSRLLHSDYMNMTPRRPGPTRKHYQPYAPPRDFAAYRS

Target: CD28 on Jurkat T cells (UniProt P10747)
Assay: flow cytometry on Jurkat cells; the bivalent comparator bound more strongly than the Interceptors

B1: 2E12 monoclonal antibody (mAb) (antibody, V domains shown)
VH: QVQLKESGPGSVAPSQSLSITCTVSGFSLTGYGVNWVRQPPGKGLEWLGMIWGDGSTDYNSALKSRLSITKDNSKSQVFLKMNSLQTDDTARYYCARDGYSNFHYYVMDYWGQGTSVTVSS
VL: DIVLTQSPASLAVSLGQRATISCRASESVEYYVTSLMQWYQQKPGQPPKLLISAASNVESGVPARFSGSGSGTDFSLNIHPVEEDDIAMYFCQQSRKVPWTFGGGTKLEIK
binding: binds
